From PubChem BioAssay AID1671190 (National Center for Advancing Translational Sciences (NCATS), 2021)
The whole screen tested about 580,000 compounds, of which about 6,100 (1.1%) were called active. Inconclusive results, whose numbers are uncertain, are shown with a selection of clear calls. Calls follow the shape of the dose curve; as a rule, active = well fitted inhibition curve with a large enough effect; inconclusive = small, poorly fitted or top-dose-only effect, or another doubt; inactive = no such curve, though single readings can be large or run the other way. A potency beside an inconclusive call is a rough fit, not a confirmed value.
% is scaled to controls: 0 for no effect and ±100 for the full control effect; potency is read from the fitted curve at half-maximal effect.

Amino acid sequences for entries named in this document (tags omitted).
UniProt P18054, whole entry, looked up: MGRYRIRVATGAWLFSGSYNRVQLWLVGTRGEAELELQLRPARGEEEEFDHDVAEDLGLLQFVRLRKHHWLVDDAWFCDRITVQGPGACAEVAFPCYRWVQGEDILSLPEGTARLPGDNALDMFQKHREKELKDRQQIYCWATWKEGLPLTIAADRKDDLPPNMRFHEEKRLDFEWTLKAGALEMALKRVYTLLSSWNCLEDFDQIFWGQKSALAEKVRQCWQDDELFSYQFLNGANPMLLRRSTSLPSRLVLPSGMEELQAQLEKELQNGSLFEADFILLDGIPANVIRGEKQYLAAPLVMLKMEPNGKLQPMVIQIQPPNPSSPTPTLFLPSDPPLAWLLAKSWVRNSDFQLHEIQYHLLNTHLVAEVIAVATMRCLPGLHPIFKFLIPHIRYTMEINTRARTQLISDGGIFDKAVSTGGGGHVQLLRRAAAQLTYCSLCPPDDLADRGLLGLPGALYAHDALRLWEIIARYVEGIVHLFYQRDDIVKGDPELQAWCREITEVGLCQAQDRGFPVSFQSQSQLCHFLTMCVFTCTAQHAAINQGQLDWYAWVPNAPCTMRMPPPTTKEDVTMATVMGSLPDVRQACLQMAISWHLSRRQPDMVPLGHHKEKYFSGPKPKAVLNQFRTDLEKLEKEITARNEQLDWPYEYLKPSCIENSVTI

Each molecule was assayed against Polyunsaturated fatty acid lipoxygenase ALOX12 (Homo sapiens) (UniProt P18054) (assay: Primary qHTS assay for inhibitors of human arachidonate 12S-lipoxygenase (ALOX12): Round 2). Conditions: purified 12hLO, xylenol orange hydroperoxide absorbance; activity change, negative = inhibition: at 108 µM (top of the series) unless noted.
How it was run: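 Hydroperoxide product was detected by ferrous iron/xylenol orange as the 573 to 405 nm absorbance ratio. Arachidonic acid at 40 uM (final) was turned over for 30 min at room temperature by 150 nM human 12hLO, pH 7.0 Hepes buffer, after 15 min compound preincubation.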
In the case of `O=C1C2CCCN2C(=S)N1c1ccccc1` (stereo not given), the Potency was inconclusive: 100 µM [inhibitor, single point].
In the case of `CCCC(C(=O)NC(C)(C)C)N(C(=O)c1snc(C(N)=O)c1N)c1ccc2c(c1)OCCO2` (stereo not given), the Potency was inconclusive: 44.7 µM [inhibitor, partial curve, poor fit].
For `OCCN1CCN(CCOc2ccccc2-c2ccccc2)CC1`, the Potency was inconclusive: 50.1 µM [inhibitor, partial curve].
For `CCN(CC)c1nc2cc(OC)ccc2cc1C#N`, the Potency was inconclusive: 50.1 µM [inhibitor, partial curve, poor fit].
For `O=C(CCC(=O)c1ccccc1)Nc1ccccc1-c1ccccc1`, the Potency was inconclusive: 44.7 µM [inhibitor, partial curve, poor fit].
In the case of `O=[N+]([O-])c1ccc(/C=[N+](\[O-])CCO)o1`, the Potency was inconclusive: 35.5 µM [inhibitor, single point].
In the case of `O=C(Nc1ccccc1C(=O)NC1CC1)c1cnc2ccccc2n1`, the Potency was inconclusive: 50.1 µM [inhibitor, partial curve, poor fit].
In the case of `O=C1/C(=C/c2ccc(Cl)c(Cl)c2)C(c2ccccc2)Oc2ccccc21` (stereo not given), the “activity change, negative = inhibition” value was inactive: -56%.
In the case of `Cc1noc(-c2ccc(OC3CN(C(=O)c4sccc4C)C3)cc2)n1`, the Potency was inconclusive: 70.8 µM [inhibitor, partial curve, poor fit].
In the case of `OCc1cc(CC2(NCc3ccc(CO)o3)COC2)no1`, the “activity change, negative = inhibition” value was inactive: 6.13% [at 176 µM].
In the case of `COc1cc2c(cc1OC)C(C)N(C(=O)c1ccccc1Br)CC2` (stereo not given), the “activity change, negative = inhibition” value was inactive: 5.19%.
With `O=C1CC(Sc2nnc(-c3ccccc3O)o2)C(=O)N1c1ccccc1` (stereo not given) the “activity change, negative = inhibition” value was inactive: -3.51%.
`Cc1cc(NC(=O)Cn2nnc(-c3ccccc3NC(=O)c3ccccc3F)n2)no1` was tested, and the Potency was inconclusive: 31.6 µM [inhibitor, partial curve].
In the case of `O=C(O)CCSCc1c[nH]c2ccccc12`, the Potency was inconclusive: 35.5 µM [inhibitor, single point].
For `COc1ccc(C(=O)OCC(=O)Nc2ccc3c(c2)OCCO3)c(OC)c1`, the Potency was inconclusive: 50.1 µM [inhibitor, partial curve, poor fit].
For `Cc1c(CCC(=O)NC2(C)CCS(=O)(=O)C2)c(=O)oc2cc(O)ccc12` (stereo not given), the “activity change, negative = inhibition” value was inactive: 2.07%.
With `c1ccc(C2=Nc3ccccc3OC2)cc1` the Potency was inconclusive: 39.8 µM [inhibitor, partial curve, poor fit].
In the case of `O=C(NCCc1ccc(F)cc1)C(=O)NCC1CCCN1S(=O)(=O)c1ccccc1` (stereo not given), the “activity change, negative = inhibition” value was inactive: 15.3%.
In the case of `CC(=O)/C=C(/C)NC(Cc1c[nH]c2ccccc12)C(=O)O` (stereo not given), the Potency was inconclusive: 0.251 µM [inhibitor, full curve, poor fit].
For `COc1ccccc1C(CCNCc1ccc(N(C)C)cc1)c1ccc(OC(C)C)cc1` (stereo not given), the Potency was inconclusive: 89.1 µM [inhibitor, partial curve, poor fit].
`COc1ccc2[nH]cc(CCNc3cc(-c4cccc(C#N)c4)ncn3)c2c1` was tested, and the Potency was inconclusive: 10 µM [inhibitor, full curve, poor fit].
With `CCOC(=O)c1c(-c2cccs2)csc1NC(=O)CN1CCOCC1` the “activity change, negative = inhibition” value was inactive: 38.9%.
In the case of `CC1=NS(=O)(=O)N(C)C=C1C(=O)OCc1nc(Cc2ccc(C)cc2)no1`, the “activity change, negative = inhibition” value was inactive: 43.2%.
With `CN(C)S(=O)(=O)c1ccc(-c2nc(C#N)c(N3CCN(c4cccc(Cl)c4)CC3)o2)cc1` the “activity change, negative = inhibition” value was inactive: -40.4%.
For `CCc1ccc(Nc2nc3ccccc3nc2NS(=O)(=O)c2ccccc2)cc1`, the Potency was inconclusive: 44.7 µM [inhibitor, partial curve, poor fit].
For `COc1cc(NC(=O)CSc2ncnc3nc[nH]c23)cc(OC)c1OC`, the Potency was inconclusive: 44.7 µM [inhibitor, single point].
`COc1ccc(-c2noc3c2-c2nc(-c4c(F)cccc4F)sc2CC3)cc1` was tested, and the Potency was inconclusive: 50.1 µM [inhibitor, partial curve, poor fit].
`O=C(Cc1ccc(NC(=O)C2CCCN(C(=O)c3ccccc3)C2)cc1)Nc1ccc(C(=O)N2CCOCC2)cc1` (stereo not given) was tested, and the Potency was inconclusive: 25.1 µM [inhibitor, single point].
In the case of `CCOC(=O)C1CCN(C(=O)c2nc3nc(-c4ccco4)cc(C(F)(F)F)n3n2)CC1`, the Potency was inconclusive: 79.4 µM [inhibitor, single point].
For `Cc1ccc2cc(C(c3nnnn3C3CCCC3)N3CCOCC3)c(=O)[nH]c2c1C` (stereo not given), the Potency was inconclusive: 8.91 µM [inhibitor, partial curve, poor fit].
For `Cc1ccc(NC(=O)Cc2nc(CCl)cs2)cc1`, the Potency was inconclusive: 39.8 µM [inhibitor, partial curve].
With `Nc1nc(CN2CCN(c3ccccc3F)CC2)nc(Nc2ccccc2)n1` the “activity change, negative = inhibition” value was inactive: -0.526%.
For `COc1cc(F)ccc1-c1nccc2c(=O)cc(-c3cnn(C)c3)oc12`, the Potency was inconclusive: 112 µM [inhibitor, partial curve, poor fit].
With `O=S(=O)(c1ccc(Cl)cc1)N1CCN(S(=O)(=O)N2CCCCCC2)CC1` the Potency was inconclusive: 158 µM [inhibitor, single point].
With `CN(c1ccccc1)S(=O)(=O)c1cccc(C(=O)Nc2ccc(N3CCOCC3)cc2)c1` the Potency was inconclusive: 70.8 µM [inhibitor, single point].
`O=C(NCCCOc1cccc(CN2CCCCC2)c1)c1ccc(Cl)c(Cl)c1` was tested, and the “activity change, negative = inhibition” value was inactive: -26.4%.
With `Cc1cccc(NC(=S)NCCc2ccccc2)n1` the Potency was active: 20 µM.
In the case of `CCN(CC)CCCNC(=O)CNc1nc(Cl)nc2nc[nH]c12`, the “activity change, negative = inhibition” value was inactive: -14.7%.
`Cc1ccnc2nc(C(=O)OCC(=O)Nc3ccccc3)nn12` was tested, and the Potency was inconclusive: 39.8 µM [inhibitor, single point].
With `Cc1nc2ccc(NC(=S)NC(C)C)cc2nc1C` the Potency was inconclusive: 141 µM [inhibitor, single point].
With `NC(=O)C1CCN(CC(=O)Nc2ccc(S(=O)(=O)N3CCOCC3)cc2)CC1` the “activity change, negative = inhibition” value was inactive: 0.794%.
With `COc1ccccc1S(=O)(=O)N1CCNC(=O)C1` the Potency was inconclusive: 39.8 µM [inhibitor, partial curve, poor fit].
In the case of `COc1ccc(N(C)C(=O)Cn2cc(S(=O)(=O)N3CCN(c4ccccc4F)CC3)c3ccccc3c2=O)c(OC)c1`, the Potency was inconclusive: 141 µM [inhibitor, partial curve, poor fit].
In the case of `CC(C)(C)N(Cc1ccccc1)C(=O)COC(=O)C1CCN(c2ccc(C(F)(F)F)cn2)CC1`, the Potency was inconclusive: 39.8 µM [inhibitor, full curve, poor fit].
`CCc1ccc(C2C(C#N)=C(N)Oc3cc(N)ccc32)cc1` (stereo not given) was tested, and the Potency was inconclusive: 100 µM [inhibitor, single point].
For `COc1ccc(C(C[N+](=O)[O-])c2c(-c3ccccc3)cc3ccccn23)cc1` (stereo not given), the Potency was inconclusive: 44.7 µM [inhibitor, partial curve, poor fit].
With `O=C(O)c1ccc(Nc2ncc([N+](=O)[O-])cc2[N+](=O)[O-])cc1` the Potency was inconclusive: 44.7 µM [inhibitor, partial curve, poor fit].
For `O=C1C(=C2SCCCS2)CC/C1=C\c1ccc(F)cc1`, the “activity change, negative = inhibition” value was inactive: 134%.
With `Cc1ccc(/C=N/NC(=S)N2CCOCC2)cc1` the Potency was inconclusive: 14.1 µM [inhibitor, full curve, poor fit].
`CC1=NN(c2ccccc2)C(=O)/C1=C\C=C\c1ccccc1` was tested, and the Potency was inconclusive: 39.8 µM [inhibitor, single point].
For `COc1cccc(C(C(=O)NC2CCCCC2)N(C(=O)c2ccco2)c2ccc(-n3cnnn3)c(C)c2)c1` (stereo not given), the Potency was inconclusive: 50.1 µM [inhibitor, partial curve, poor fit].
For `CC(=O)O[C@H]1C(=O)[C@@]2(C)[C@H]([C@H](OC(=O)c3ccccc3)[C@]3(O)C[C@H](OC(=O)[C@H](O)[C@@H](NC(=O)c4ccccc4)c4ccccc4)C(C)=C1C3(C)C)[C@]1(OC(C)=O)CO[C@@H]1C[C@@H]2O`, the Potency was “inactive”.
In the case of `CCCCN1CC(=O)N2[C@H]3c4cc(OC)ccc4OC[C@@H]3[C@H](C(=O)OCC)[C@]2(C)C1=O`, the Potency was inconclusive: 22.4 µM [inhibitor, partial curve, poor fit].
`COc1cc(/C=N/n2cc(-c3ccccc3)[nH]c2=S)cc(OC)c1O` was tested, and the Potency was active: 12.6 µM.
For `NC(=O)c1cccc(CN2CCC3(Cc4ccccc4N(C(=O)c4ccc(Cl)cc4)C3)C2)c1` (stereo not given), the Potency was inconclusive: 39.8 µM [inhibitor, partial curve].
`CCOc1cc(/C=C(/C#N)c2nc3ccccc3[nH]2)ccc1Oc1ccc([N+](=O)[O-])cn1` was tested, and the Potency was inconclusive: 89.1 µM [inhibitor, partial curve, poor fit].
With `COc1ccc(OC)c(NC(=O)c2cc(=O)c3cc(C)ccc3o2)c1` the “activity change, negative = inhibition” value was inactive: 13.4%.
With `CN(C)c1ncc2nc(-c3ccc(Cl)cc3)c(=O)n(C[C@H]3CCCO3)c2n1` the Potency was inconclusive: 79.4 µM [inhibitor, partial curve, poor fit].
For `COc1cccc(OC)c1OCCNCCO`, the “activity change, negative = inhibition” value was inactive: 8.67%.
`O=S(=O)(c1ccc(NC(=S)N/N=C/c2c3ccccc3cc3ccccc23)cc1)N1CCOCC1` was tested, and the Potency was inconclusive: 28.2 µM [inhibitor, partial curve].
`O=C(O)CC1CC(=O)OC1=O` (stereo not given) was tested, and the Potency was inconclusive: 79.4 µM [inhibitor, single point].
For `COc1ccc(-c2cc(C[C@@H]3CC[C@H](O)[C@@H](CNC(=O)N4CCOCC4)O3)no2)cc1`, the “activity change, negative = inhibition” value was inactive: -10% [at 176 µM].
In the case of `CC(C)C(=O)NC(c1ccco1)c1c(O)ccc2ccccc12` (stereo not given), the Potency was inconclusive: 7.08 µM [inhibitor, full curve].
`Cc1ccc(NC(=O)CN(C)C2CCCCC2)cc1Br` was tested, and the “activity change, negative = inhibition” value was inactive: -4.44%.
`[O-]/[N+](=C/c1ccc(F)cc1)c1ccccc1` was tested, and the Potency was inconclusive: 70.8 µM [inhibitor, partial curve, poor fit].
